Data as given in PubChem BioAssay AID1259308 (NCATS, 2017)

- Purpose: 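Knock-downs that increase output of a recombinant reporter protein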 (primary screen)
- Cell system: human HEK293 embryonic kidney cells stably expressing firefly luciferase (HEK-CMV-Luc2-Hygro)
- Knock-down reagent: single siRNA against human genes, 0.8 pmol siRNA per well
- Timing: 72 h
- Read-out: 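Reporter luminescence and viable-cell signal on separate replicate plates, given as percent of non-targeting control and median/MAD z-scores, plus per-cell luciferase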
- Direction: total luciferase, z-score and total luciferase, % of control: higher = more reporter protein produced; luciferase per cell, z-score: higher = more reporter output per viable cell
- Call rule: 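An siRNA counts as active if its total luciferase robust z-score exceeds 3; genes with two or more such siRNAs out of three were retested with fresh siRNAs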
- Meaning of the calls: active = raised luciferase; inactive = no rise
This is an unselected part of about 59,000 deposited reagents. In the full data, about 1,510 (2.6%) got an active call. 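Calls use total luciferase alone and ignore viability, so some active siRNAs may act by altering cell number.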 A number with no mark means an inactive call. Not all columns of the deposit are shown.

no.	gene symbol	PubChem SID	total luciferase, z-score	total luciferase, % of control	luciferase per cell, z-score
1	SPMIP4 (sperm microtubule inner protein 4)	SID160732488	-0.873	64.5	-1.17
2	SPMIP4 (sperm microtubule inner protein 4)	SID160757496	0.276	87.4	0.431
3	SPMIP4 (sperm microtubule inner protein 4)	SID160757497	3.5 (active)	152	2.29
4	INTS13 (integrator complex subunit 13)	SID160744189	-0.781	66.4	-1.19
5	INTS13 (integrator complex subunit 13)	SID160744190	1.76	117	1.01
6	INTS13 (integrator complex subunit 13)	SID160744191	3.98 (active)	161	2.14
7	ZNF638 (zinc finger protein 638)	SID160738735	-0.608	69.8	-0.0675
8	ZNF638 (zinc finger protein 638)	SID160738736	1.14	105	1.11
9	ZNF638 (zinc finger protein 638)	SID160738737	1.14	105	0.449
10	NRDE2 (NRDE-2, necessary for RNA interference, domain containing)	SID160742824	-0.414	73.6	-0.72
11	NRDE2 (NRDE-2, necessary for RNA interference, domain containing)	SID160742825	0.48	91.4	0.184
12	NRDE2 (NRDE-2, necessary for RNA interference, domain containing)	SID160742826	-1.88	44.5	-1.81
13	ZNF444 (zinc finger protein 444)	SID160743499	-0.0697	80.5	-0.0814
14	ZNF444 (zinc finger protein 444)	SID160743500	2.5	132	1.56
15	ZNF444 (zinc finger protein 444)	SID160743501	-2.07	40.7	-1.03
16	MIS12 (MIS12 kinetochore complex component)	SID160734920	-0.828	65.4	-1.22
17	MIS12 (MIS12 kinetochore complex component)	SID160748459	1.95	121	2.07
18	MIS12 (MIS12 kinetochore complex component)	SID160748460	0.135	84.6	0.264
19	MAPK1IP1L	SID160754499	0.668	95.2	0.16
20	MAPK1IP1L	SID160754500	0.177	85.4	-0.323
21	MAPK1IP1L	SID160754501	-0.564	70.7	-0.0757
22	CHRM5 (cholinergic receptor muscarinic 5)	SID160743120	-0.652	68.9	-0.631
23	CHRM5 (cholinergic receptor muscarinic 5)	SID160743131	-0.876	64.5	-0.891
24	CHRM5 (cholinergic receptor muscarinic 5)	SID160743142	-0.511	71.7	0.0738
25	JADE1 (jade family PHD finger 1)	SID160749857	-0.0472	80.9	0.454
26	JADE1 (jade family PHD finger 1)	SID160749858	1.73	116	1.22
27	JADE1 (jade family PHD finger 1)	SID160749859	0.217	86.2	0.138

Continued, starting with the last 4 of the part before.
no.	gene symbol	PubChem SID	total luciferase, z-score	total luciferase, % of control	luciferase per cell, z-score
24	CHRM5 (cholinergic receptor muscarinic 5)	SID160743142	-0.511	71.7	0.0738
25	JADE1 (jade family PHD finger 1)	SID160749857	-0.0472	80.9	0.454
26	JADE1 (jade family PHD finger 1)	SID160749858	1.73	116	1.22
27	JADE1 (jade family PHD finger 1)	SID160749859	0.217	86.2	0.138
28	TIMM10B (translocase of inner mitochondrial membrane 10B)	SID160730940	0.38	89.4	1.57
29	TIMM10B (translocase of inner mitochondrial membrane 10B)	SID160738030	-1.12	59.7	-1.03
30	TIMM10B (translocase of inner mitochondrial membrane 10B)	SID160738031	-0.58	70.4	0.159
31	LRFN4	SID160724531	-0.713	67.7	-0.874
32	LRFN4	SID160731904	-0.815	65.7	0.428
33	LRFN4	SID160748450	-0.0466	81	-0.137
34	DCTN5 (dynactin subunit 5)	SID160752339	2.62	134	2.13
35	DCTN5 (dynactin subunit 5)	SID160752340	-0.458	72.8	-0.486
36	DCTN5 (dynactin subunit 5)	SID160752341	-0.962	62.8	-1.23
37	ENTPD5 (ectonucleoside triphosphate diphosphohydrolase 5)	SID160739313	0.726	96.3	0.472
38	ENTPD5 (ectonucleoside triphosphate diphosphohydrolase 5)	SID160739324	1.28	107	1.27
39	ENTPD5 (ectonucleoside triphosphate diphosphohydrolase 5)	SID160739335	1	102	1.49
40	ACSF2 (acyl-CoA synthetase family member 2)	SID160750239	5.32 (active)	188	3.66
41	ACSF2 (acyl-CoA synthetase family member 2)	SID160750240	4.46 (active)	171	4.45
42	ACSF2 (acyl-CoA synthetase family member 2)	SID160750241	-0.36	74.7	-0.634
43	NEU4 (neuraminidase 4)	SID160724809	1.05	103	1.04
44	NEU4 (neuraminidase 4)	SID160730588	0.89	99.6	0.217
45	NEU4 (neuraminidase 4)	SID160756897	0.733	96.5	0.55
46	KLHL9 (kelch like family member 9)	SID160744672	-0.385	74.2	-0.5
47	KLHL9 (kelch like family member 9)	SID160744673	1.55	113	2.52
48	KLHL9 (kelch like family member 9)	SID160744674	-1.01	61.8	-0.14
49	CMSS1 (cms1 ribosomal small subunit homolog)	SID160752154	0.0609	83.1	-0.17
50	CMSS1 (cms1 ribosomal small subunit homolog)	SID160752155	-0.99	62.2	-0.922
51	CMSS1 (cms1 ribosomal small subunit homolog)	SID160752156	-0.906	63.9	-1.61
52	ZNF774 (zinc finger protein 774)	SID160764587	0.524	92.3	0.829
53	ZNF774 (zinc finger protein 774)	SID160764588	-0.31	75.7	-0.363
54	ZNF774 (zinc finger protein 774)	SID160764589	1.81	118	1.14
55	CASQ2 (calsequestrin 2)	SID160736852	0.626	94.3	0.529
56	CASQ2 (calsequestrin 2)	SID160736863	-0.0317	81.3	-0.525
57	CASQ2 (calsequestrin 2)	SID160736874	-0.512	71.7	-0.253
